{"source": "PubChem BioAssay AID504467", "about": "(National Center for Advancing Translational Sciences (NCATS), 2011)", "note": "The campaign covered roughly 330,000 compounds. About 7,700 (2.3%) were called active. Inconclusive results, whose numbers are uncertain, are shown with a selection of clear calls. Calls come from the whole dose curve; as a rule, active = well fitted inhibition curve with a large enough effect; inconclusive = small, poorly fitted or top-dose-only effect, or effect the other way; inactive = flat fitted curve, though single readings scatter. Potencies of inconclusive entries are doubtful fits and often do not repeat. % is set by controls: 0 for no effect and ±100 for the full control effect; potency is the fitted concentration of half-maximal effect.", "data": [{"assay": "qHTS screen for small molecules that inhibit ELG1-dependent DNA repair in human embryonic kidney (HEK293T) cells expressing luciferase-tagged ELG1; note: nearly all actives have a fitted effect of over 55% in size", "conditions": "HEK293T ELG1-luciferase reporter, luminescence, 16 h, DNA damage induced by 5-fluorouridine; activity change, negative = inhibition: at 46.1 µM (top of the series)", "summary_of_the_method": "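HEK293T cells expressing luciferase-tagged ELG1 (2,000/well) received 5-Fluorouridine plus compound or DMSO for 16 hr at 37 °C. Luciferase was read by ONE-Glo luminescence after 30 min at room temperature.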", "values": [{"compound": "CCOc1ccc(S(=O)(=O)N(CC(=O)N2CCc3ccccc32)Cc2ccco2)cc1", "Potency": "inconclusive: 35.5 µM [inhibitor, single point]"}, {"compound": "COc1ccc(C(=O)Nc2ccc(C(=O)N3CCCCC3)cc2)cc1OC", "Potency": "inconclusive: 20.6 µM [activator, single point]"}, {"compound": "O=C1CCCC2=C1C1(CCCC1)N=C(Nc1nc3ccccc3s1)N2", "Potency": "inconclusive: 23.1 µM [activator, partial curve]"}, {"compound": "COc1ccccc1NC(=S)NCc1ccc(F)cc1", "activity change, negative = inhibition": "inactive: -10.6%"}, {"compound": "COc1cccc(CN(C)C(=O)c2cccc(NC(=O)CC3SC(N4CCCCC4)=NC3=O)c2)c1OC", "note": "(stereo not drawn)", "Potency": "inconclusive: 16.4 µM [inhibitor, partial curve]"}, {"compound": "Cc1c(C(=O)NC(C)C)c(-c2ccccc2)nn1-c1ccccc1", "activity change, negative = inhibition": "inactive: -0.245%"}, {"compound": "NC(=O)CC(NC(=O)c1ccc(Br)cc1)c1ccc(NC2CCCCC2)c([N+](=O)[O-])c1", "note": "(stereo not drawn)", "activity change, negative = inhibition": "inactive: -7.02%"}, {"compound": "Cn1c(N2CCN(C(=O)Nc3ccc(F)cc3)CC2)nc2ccccc21", "Potency": "inconclusive: 29.1 µM [inhibitor, single point]"}, {"compound": "COc1ccc(CCNC(=O)CSc2nnc(-c3ccccc3)c3ccccc23)cc1OC", "Potency": "inconclusive: 16.4 µM [inhibitor, partial curve]"}, {"compound": "Cc1cc2ncn(/N=C/c3ccc4c(c3)OCO4)c2cc1C", "activity change, negative = inhibition": "inactive: -5.44%"}, {"compound": "CCOC(=O)C1=C(c2ccc(OC)cc2)OC(N)=C(C#N)C1c1cccnc1", "note": "(stereo not drawn)", "activity change, negative = inhibition": "inactive: -0.147%"}, {"compound": "Cc1c(C(=O)NCc2ccc(F)cc2)c(-c2ccccc2)nn1-c1ccccc1", "Potency": "inconclusive: 23.1 µM [inhibitor, partial curve]"}, {"compound": "O=C1CC(SC(=NCc2ccc3c(c2)OCO3)Nc2ccccc2)C(=O)N1c1ccccc1", "note": "(stereo not drawn)", "activity change, negative = inhibition": "inactive: 0%"}, {"compound": "C#CC(CC)(CC)NC(=O)Nc1ccccc1C(=O)OC", "activity change, negative = inhibition": "inactive: -1.08%"}, {"compound": "Cc1nn(Cc2ccc(F)cc2)c2sc(C(=O)Nc3nccs3)cc12", "Potency": "inconclusive: 29.1 µM [inhibitor, partial curve, poor fit]"}, {"compound": "NS(=O)(=O)c1ccc2nc(NC(=O)c3ccncc3)sc2c1", "Potency": "inconclusive: 13 µM [activator, partial curve]"}, {"compound": "O=C(CSc1nnc(-c2cccs2)n1-c1ccccc1)Nc1ccccc1", "Potency": "inconclusive: 31.6 µM [activator, single point]"}, {"compound": "C[C@@H]1CN([C@H](C)CO)C(=O)c2cc(NC(=O)Nc3ccc(C(F)(F)F)cc3)ccc2O[C@H]1CN(C)Cc1ccc(Cl)c(Cl)c1", "Potency": "inconclusive: 29.1 µM [inhibitor, single point]"}, {"compound": "C=CCc1c(C)nc2cc(-c3ccccc3)[nH]n2c1=O", "Potency": "inconclusive: 9.2 µM [activator, partial curve]"}, {"compound": "CC(=O)c1ccc(Cc2cnc(N)s2)cc1", "Potency": "inconclusive: 13 µM [activator, partial curve, poor fit]"}, {"compound": "O=C(CCOc1ccccc1)NCC(c1ccco1)N1CCCCC1", "note": "(stereo not drawn)", "Potency": "inconclusive: 0.651 µM [inhibitor, partial curve, poor fit]"}, {"compound": "CCOC(=O)N1CCN(Cc2nc3c(c(=O)n(C)c(=O)n3C)n2CCC(C)C)CC1", "activity change, negative = inhibition": "inactive: 5.42%"}, {"compound": "Cc1ccc(-c2ccc(=O)n(CC(=O)N3CCN(c4cccc(C)c4)C(C)C3)n2)cc1", "note": "(stereo not drawn)", "activity change, negative = inhibition": "inactive: -22.8%"}, {"compound": "Cc1ccc(S(=O)(=O)CCC(=O)OCC(=O)N(Cc2ccccc2)C(C)C)cc1", "activity change, negative = inhibition": "inactive: 4.25%"}, {"compound": "CCc1nnc(NC(=O)C2CCCN(S(=O)(=O)c3ccc(OC)cc3)C2)s1", "note": "(stereo not drawn)", "Potency": "inconclusive: 18.3 µM [activator, single point]"}, {"compound": "CN(C)/C=N/c1c(C#N)cnn1-c1nc2ccccc2s1", "Potency": "inconclusive: 20.6 µM [activator, single point]"}, {"compound": "COc1cc(NC(=O)c2cc(CC(C)C)on2)c(OC)cc1Cl", "Potency": "inconclusive: 20.6 µM [activator, partial curve, poor fit]"}, {"compound": "CC(NC(c1ccccc1)c1ccccc1)C(=O)N1CCCc2ccccc21", "note": "(stereo not drawn)", "activity change, negative = inhibition": "inactive: -6.8%"}, {"compound": "Cc1nn2cc(-c3cccc(Cl)c3)cnc2c1Br", "Potency": "inconclusive: 23.1 µM [activator, single point]"}, {"compound": "COc1ccccc1-c1nnc(SCC(=O)NC2CCCCC2)o1", "activity change, negative = inhibition": "inactive: 17.1%"}, {"compound": "COC(=O)C1=CN(c2ccc(F)cc2)C=C(C(=O)OC)C1c1ccc(O)cc1", "activity change, negative = inhibition": "inactive: 1.11%"}, {"compound": "NC(=O)C(=CNc1nc(-c2ccc(Cl)c(Cl)c2)cs1)C(N)=O", "Potency": "inconclusive: 0.146 µM [activator, full curve, poor fit]"}, {"compound": "COC(=O)C1CCN(C(=O)Cc2ccc(C)cc2)CC1", "Potency": "inconclusive: 16.4 µM [activator, partial curve]"}, {"compound": "O=C(c1cc2c(s1)CCC2)N1C(=O)c2ccccc2S1(=O)=O", "Potency": "inconclusive: 32.6 µM [activator, partial curve, poor fit]"}, {"compound": "CCCn1c(N)c(C(=O)CN2CCN(S(=O)(=O)c3cccc(Cl)c3)CC2)c(=O)[nH]c1=O", "Potency": "inconclusive: 20.6 µM [inhibitor, single point]"}, {"compound": "COc1cc(C(=S)N2CCOCC2)ccc1OC(=O)c1ccccc1[N+](=O)[O-]", "Potency": "inconclusive: 13 µM [inhibitor, partial curve, poor fit]"}, {"compound": "CCN1CCN(C(=O)C2CCN(Cc3nc(-c4cccc(Cl)c4)oc3C)CC2)CC1", "activity change, negative = inhibition": "inactive: 5.25%"}, {"compound": "Cc1cccc2cc(C(c3nnnn3Cc3ccccc3)N3CCCc4ccccc43)c(=O)[nH]c12", "note": "(stereo not drawn)", "activity change, negative = inhibition": "inactive: 7.43%"}, {"compound": "C[C@@H]1C=C(C(=O)NCc2nc3ccccc3[nH]2)O[C@H](OCc2ccc(CO)cc2)C1", "activity change, negative = inhibition": "inactive: -16.2%"}, {"compound": "COc1cc2c(cc1OC)C(C)N(CCN1C(=O)c3ccccc3C1=O)CC2", "note": "(stereo not drawn)", "activity change, negative = inhibition": "inactive: -2.44%"}, {"compound": "COc1ccc(NC(=S)NC(=O)C2CCC2)cc1", "Potency": "inconclusive: 20.6 µM [activator, partial curve]"}, {"compound": "COCCNC(=O)Cc1c(C)c2cc3c(cc2oc1=O)OC(C)(C)CC3", "activity change, negative = inhibition": "inactive: 11.8%"}, {"compound": "CC(=O)N1CC(C(=O)Nc2ccc3c(c2)OCO3)Oc2ccccc21", "note": "(stereo not drawn)", "Potency": "inconclusive: 23.1 µM [activator, single point]"}, {"compound": "CCCC(CCC(=O)Nc1cccc([N+](=O)[O-])c1)C(=O)O", "note": "(stereo not drawn)", "activity change, negative = inhibition": "inactive: -3.95%"}, {"compound": "Cc1ccccc1N/C(SCc1ccc(Cl)cc1)=C(/C#N)C(=O)NCc1ccco1", "Potency": "inconclusive: 16.4 µM [inhibitor, partial curve, poor fit]"}, {"compound": "COc1ccc(C(=O)NC(=S)Nc2nc(C)c(C(=O)N(C)C)s2)cc1", "activity change, negative = inhibition": "inactive: 21.5%"}, {"compound": "CCC1=NN(C(=O)COc2ccccc2C)C(O)(c2ccncc2)C1", "note": "(stereo not drawn)", "activity change, negative = inhibition": "inactive: 2.46%"}, {"compound": "CC1CCCC(C)N1C(=O)c1cc(-c2ccco2)on1", "note": "(stereo not drawn)", "Potency": "inconclusive: 7.3 µM [activator, partial curve, poor fit]"}, {"compound": "O=C(NCCCc1nc2ccccc2[nH]1)c1ccco1", "activity change, negative = inhibition": "inactive: 7.72%"}, {"compound": "O=C(O)/C=C/C(=O)N1N=C(c2ccco2)CC1c1ccco1", "note": "(stereo not drawn)", "activity change, negative = inhibition": "inactive: 1.15%"}, {"compound": "CCc1nn(CC(=O)NCCCN(C)Cc2ccccc2)c(=O)c2cc3sc(C)cc3n12", "activity change, negative = inhibition": "inactive: 18%"}, {"compound": "CC(=O)Nc1cccc(Oc2ncnc3scc(-c4ccc(C)cc4)c23)c1", "Potency": "inconclusive: 23.1 µM [inhibitor, single point]"}, {"compound": "CSC1=NCCN1C(=O)c1ccc(C)cc1", "Potency": "inconclusive: 20.6 µM [activator, partial curve, poor fit]"}, {"compound": "Cc1cccc(N/C=C(\\[N+](=O)[O-])S(=O)(=O)c2ccccc2)c1C", "activity change, negative = inhibition": "inactive: 5.38%"}, {"compound": "CCOC(=O)N1CCN(C(=O)c2nn(-c3cc(OC)cc(OC)c3)c(=O)c3ccccc23)CC1", "Potency": "inconclusive: 29.1 µM [inhibitor, single point]"}, {"compound": "COc1cc(F)ccc1S(=O)(=O)NCc1cccnc1", "activity change, negative = inhibition": "inactive: 2.38%"}, {"compound": "CCOc1ccc(OCCC(=O)N2CCN(S(=O)(=O)c3cccc(F)c3)CC2)cc1", "Potency": "inconclusive: 29.1 µM [inhibitor, single point]"}, {"compound": "O=C(NCC(c1ccco1)N1CCCC1)c1ccc(S(=O)(=O)Nc2ccccc2Cl)cc1", "note": "(stereo not drawn)", "Potency": "inconclusive: 35.5 µM [inhibitor, single point]"}, {"compound": "Cc1cc([N+](=O)[O-])nn1CC(=O)NCc1ccc(Cl)cc1", "Potency": "inconclusive: 11.6 µM [activator, single point]"}, {"compound": "COc1ccc(NC(=S)N(CCC(C)C)C2CCN(C(C)C)CC2)cc1Cl", "activity change, negative = inhibition": "inactive: -16%"}, {"compound": "CCOc1ccc(NCC2CCOC(C)(C)C2)cc1", "note": "(stereo not drawn)", "Potency": "inconclusive: 29.1 µM [activator, single point]"}, {"compound": "CC(C)C(NC(=O)c1ccco1)C(=O)OCC(=O)Nc1ccc(C(N)=O)cc1", "note": "(stereo not drawn)", "activity change, negative = inhibition": "inactive: -2.25%"}, {"compound": "O=C(NC(=S)NNC(=O)c1ccccc1O)c1ccco1", "activity change, negative = inhibition": "inactive: 26.1%"}, {"compound": "CCN(CC)C(=O)CSc1nnc(-c2cc3ccccc3cc2O)n1CC", "Potency": "inconclusive: 9.2 µM [inhibitor, single point]"}, {"compound": "CCC1CCCCN1C(=S)Nc1ccc(C(C)=O)cc1", "note": "(stereo not drawn)", "Potency": "inconclusive: 18.4 µM [activator, single point]"}, {"compound": "C=CCN1C(=O)C(Cc2ccc(OCC)cc2)S/C1=N\\N=C\\c1cccs1", "note": "(stereo not drawn)", "activity change, negative = inhibition": "inactive: -21.5%"}, {"compound": "COc1ccc(Cl)cc1NC(=O)CSc1nc(=O)n(CCN(C)C)c2c1CCCC2", "activity change, negative = inhibition": "inactive: -3.18%"}, {"compound": "CCOC(=O)c1ccc(NC(=O)CCc2nc(-c3ccccc3Cl)no2)cc1", "activity change, negative = inhibition": "inactive: -5.38%"}, {"compound": "COc1ccccc1NC(=O)C(C)OC(=O)C1CCC(C(C)(C)C)CC1", "note": "(stereo not drawn)", "Potency": "inconclusive: 11.6 µM [inhibitor, single point]"}, {"compound": "CC1CCCCC1NCc1cccc([N+](=O)[O-])c1", "note": "(stereo not drawn)", "Potency": "inconclusive: 18.3 µM [activator, single point]"}, {"compound": "Cc1ccc(N2CCN(C3=NC(=O)/C(=C\\c4cccs4)S3)CC2)cc1", "Potency": "inconclusive: 29.1 µM [inhibitor, single point]"}, {"compound": "COc1cc([N+](=O)[O-])cc(/C=N/NC(=O)CSc2nnc(-c3ccccc3)n2C)c1O", "Potency": "inconclusive: 29.1 µM [inhibitor, single point]"}, {"compound": "Cn1c(C(=O)NC2CCCCC2)cc2c(=O)n(C)c3ccccc3c21", "Potency": "inconclusive: 29.1 µM [inhibitor, single point]"}]}]}
